# Assay results from the supplement of paper PMC12819154, “High-throughput peptide-centric local stability assay extends protein–ligand identification to membrane proteins, tissues and bacteria” (Nature Structural & Molecular Biology, 2025).
# Sequences of proteins named here, by UniProt entry; tags and fusion partners are left off. A change or cut given only in a name is not applied to a line headed by its entry.
# UniProt Q9UHB4: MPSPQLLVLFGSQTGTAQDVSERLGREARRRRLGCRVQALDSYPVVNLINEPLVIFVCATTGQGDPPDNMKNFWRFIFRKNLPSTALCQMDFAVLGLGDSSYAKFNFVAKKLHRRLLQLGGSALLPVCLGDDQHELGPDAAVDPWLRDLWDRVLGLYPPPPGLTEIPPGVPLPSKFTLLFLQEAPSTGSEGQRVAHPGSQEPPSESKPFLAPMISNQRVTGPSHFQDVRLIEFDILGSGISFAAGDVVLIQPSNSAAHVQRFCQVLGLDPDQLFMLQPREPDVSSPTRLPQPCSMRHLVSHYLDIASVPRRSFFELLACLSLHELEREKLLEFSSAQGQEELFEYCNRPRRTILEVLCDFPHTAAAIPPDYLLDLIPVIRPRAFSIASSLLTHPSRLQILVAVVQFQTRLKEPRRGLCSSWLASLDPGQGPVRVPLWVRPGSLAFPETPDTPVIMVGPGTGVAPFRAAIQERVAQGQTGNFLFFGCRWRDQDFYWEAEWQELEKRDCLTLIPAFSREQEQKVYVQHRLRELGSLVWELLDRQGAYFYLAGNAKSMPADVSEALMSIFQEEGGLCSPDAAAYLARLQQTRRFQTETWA
# UniProt Q9UHY1: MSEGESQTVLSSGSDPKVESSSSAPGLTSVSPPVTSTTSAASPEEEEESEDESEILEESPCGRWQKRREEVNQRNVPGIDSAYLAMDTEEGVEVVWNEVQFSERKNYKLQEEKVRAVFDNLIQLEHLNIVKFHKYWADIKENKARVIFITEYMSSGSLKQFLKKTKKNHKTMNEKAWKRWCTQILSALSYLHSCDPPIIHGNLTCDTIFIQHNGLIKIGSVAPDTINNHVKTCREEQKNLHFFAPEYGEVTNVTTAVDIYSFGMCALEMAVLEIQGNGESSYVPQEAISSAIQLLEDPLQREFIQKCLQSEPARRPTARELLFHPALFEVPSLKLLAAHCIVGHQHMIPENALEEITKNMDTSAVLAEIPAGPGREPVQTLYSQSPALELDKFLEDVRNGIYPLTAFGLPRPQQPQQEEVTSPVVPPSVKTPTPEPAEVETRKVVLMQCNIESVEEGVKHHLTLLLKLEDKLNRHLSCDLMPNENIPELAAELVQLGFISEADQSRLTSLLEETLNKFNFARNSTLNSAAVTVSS
# UniProt Q9UBP0: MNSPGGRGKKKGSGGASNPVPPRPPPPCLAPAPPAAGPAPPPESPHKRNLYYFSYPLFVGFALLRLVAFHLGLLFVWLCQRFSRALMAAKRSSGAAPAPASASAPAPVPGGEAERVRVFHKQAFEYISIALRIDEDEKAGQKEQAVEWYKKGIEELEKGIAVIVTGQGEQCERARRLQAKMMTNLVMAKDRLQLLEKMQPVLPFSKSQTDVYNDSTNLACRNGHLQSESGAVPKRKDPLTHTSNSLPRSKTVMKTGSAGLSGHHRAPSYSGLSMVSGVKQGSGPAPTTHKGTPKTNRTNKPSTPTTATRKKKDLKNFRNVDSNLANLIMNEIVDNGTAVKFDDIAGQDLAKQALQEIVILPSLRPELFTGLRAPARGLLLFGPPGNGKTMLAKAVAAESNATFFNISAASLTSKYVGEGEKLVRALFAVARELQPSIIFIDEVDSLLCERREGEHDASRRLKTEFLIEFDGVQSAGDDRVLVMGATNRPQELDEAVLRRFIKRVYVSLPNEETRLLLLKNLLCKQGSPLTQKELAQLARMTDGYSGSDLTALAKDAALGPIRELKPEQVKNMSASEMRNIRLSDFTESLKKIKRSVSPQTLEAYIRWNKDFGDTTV
# UniProt Q9UBU9: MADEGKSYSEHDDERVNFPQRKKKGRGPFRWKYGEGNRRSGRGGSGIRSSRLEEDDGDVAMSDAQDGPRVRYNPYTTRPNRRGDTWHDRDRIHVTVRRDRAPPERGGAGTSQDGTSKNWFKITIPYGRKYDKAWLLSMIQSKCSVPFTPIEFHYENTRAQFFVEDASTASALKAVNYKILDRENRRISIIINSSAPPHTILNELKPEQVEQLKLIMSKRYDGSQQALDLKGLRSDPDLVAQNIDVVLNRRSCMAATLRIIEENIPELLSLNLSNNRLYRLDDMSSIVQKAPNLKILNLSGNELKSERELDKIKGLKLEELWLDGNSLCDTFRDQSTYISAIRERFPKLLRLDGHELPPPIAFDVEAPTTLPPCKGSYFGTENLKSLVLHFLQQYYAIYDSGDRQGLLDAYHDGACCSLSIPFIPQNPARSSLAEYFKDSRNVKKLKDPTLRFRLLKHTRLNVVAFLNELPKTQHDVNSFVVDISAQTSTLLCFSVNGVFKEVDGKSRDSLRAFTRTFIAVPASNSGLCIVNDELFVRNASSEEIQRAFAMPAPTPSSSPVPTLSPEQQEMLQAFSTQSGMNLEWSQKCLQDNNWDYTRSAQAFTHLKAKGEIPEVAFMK
# UniProt Q9P2N6: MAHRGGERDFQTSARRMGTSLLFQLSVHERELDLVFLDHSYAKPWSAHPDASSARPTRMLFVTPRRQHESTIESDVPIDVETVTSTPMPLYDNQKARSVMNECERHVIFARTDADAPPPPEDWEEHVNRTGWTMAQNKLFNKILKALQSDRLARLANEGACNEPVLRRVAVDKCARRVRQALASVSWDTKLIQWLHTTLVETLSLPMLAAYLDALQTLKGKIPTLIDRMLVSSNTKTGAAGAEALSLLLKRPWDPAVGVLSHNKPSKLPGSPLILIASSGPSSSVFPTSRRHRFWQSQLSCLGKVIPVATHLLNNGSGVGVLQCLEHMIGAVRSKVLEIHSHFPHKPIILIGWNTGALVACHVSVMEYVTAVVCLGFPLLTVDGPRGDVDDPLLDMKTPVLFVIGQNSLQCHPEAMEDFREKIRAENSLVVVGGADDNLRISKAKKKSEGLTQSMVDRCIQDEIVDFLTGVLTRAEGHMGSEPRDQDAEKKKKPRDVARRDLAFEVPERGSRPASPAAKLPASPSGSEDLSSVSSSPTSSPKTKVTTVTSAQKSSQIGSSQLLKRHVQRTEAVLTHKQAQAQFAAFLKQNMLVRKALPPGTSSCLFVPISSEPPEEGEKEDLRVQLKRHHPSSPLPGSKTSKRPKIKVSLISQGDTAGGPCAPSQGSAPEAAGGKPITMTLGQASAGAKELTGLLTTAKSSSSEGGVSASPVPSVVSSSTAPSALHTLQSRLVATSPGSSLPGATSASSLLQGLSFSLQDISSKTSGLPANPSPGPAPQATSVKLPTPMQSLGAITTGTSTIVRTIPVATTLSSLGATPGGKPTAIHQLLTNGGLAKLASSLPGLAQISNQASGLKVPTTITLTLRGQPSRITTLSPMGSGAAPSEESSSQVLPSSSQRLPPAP
# UniProt Q9UHQ4: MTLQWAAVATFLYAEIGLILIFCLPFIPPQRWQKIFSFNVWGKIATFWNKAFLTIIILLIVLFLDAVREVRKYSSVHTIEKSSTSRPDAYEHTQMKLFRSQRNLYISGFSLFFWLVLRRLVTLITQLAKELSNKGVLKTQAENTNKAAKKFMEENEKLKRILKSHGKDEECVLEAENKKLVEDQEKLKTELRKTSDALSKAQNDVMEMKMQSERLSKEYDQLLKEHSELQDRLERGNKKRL
# UniProt Q9UH65: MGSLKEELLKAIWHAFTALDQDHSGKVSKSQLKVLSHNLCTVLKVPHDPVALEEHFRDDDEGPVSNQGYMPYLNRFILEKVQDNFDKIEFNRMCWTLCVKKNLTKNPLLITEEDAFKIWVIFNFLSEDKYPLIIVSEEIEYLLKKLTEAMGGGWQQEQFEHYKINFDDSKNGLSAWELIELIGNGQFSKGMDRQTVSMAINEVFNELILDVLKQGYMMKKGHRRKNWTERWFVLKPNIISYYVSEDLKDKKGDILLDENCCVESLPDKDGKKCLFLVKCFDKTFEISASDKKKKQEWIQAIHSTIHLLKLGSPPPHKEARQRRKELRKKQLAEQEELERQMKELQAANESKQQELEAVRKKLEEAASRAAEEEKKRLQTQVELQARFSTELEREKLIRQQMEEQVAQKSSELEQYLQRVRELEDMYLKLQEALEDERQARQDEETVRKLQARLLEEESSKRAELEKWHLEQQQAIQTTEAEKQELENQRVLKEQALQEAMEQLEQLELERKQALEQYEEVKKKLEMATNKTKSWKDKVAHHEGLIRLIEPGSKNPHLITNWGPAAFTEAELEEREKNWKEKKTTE
# UniProt Q9P206: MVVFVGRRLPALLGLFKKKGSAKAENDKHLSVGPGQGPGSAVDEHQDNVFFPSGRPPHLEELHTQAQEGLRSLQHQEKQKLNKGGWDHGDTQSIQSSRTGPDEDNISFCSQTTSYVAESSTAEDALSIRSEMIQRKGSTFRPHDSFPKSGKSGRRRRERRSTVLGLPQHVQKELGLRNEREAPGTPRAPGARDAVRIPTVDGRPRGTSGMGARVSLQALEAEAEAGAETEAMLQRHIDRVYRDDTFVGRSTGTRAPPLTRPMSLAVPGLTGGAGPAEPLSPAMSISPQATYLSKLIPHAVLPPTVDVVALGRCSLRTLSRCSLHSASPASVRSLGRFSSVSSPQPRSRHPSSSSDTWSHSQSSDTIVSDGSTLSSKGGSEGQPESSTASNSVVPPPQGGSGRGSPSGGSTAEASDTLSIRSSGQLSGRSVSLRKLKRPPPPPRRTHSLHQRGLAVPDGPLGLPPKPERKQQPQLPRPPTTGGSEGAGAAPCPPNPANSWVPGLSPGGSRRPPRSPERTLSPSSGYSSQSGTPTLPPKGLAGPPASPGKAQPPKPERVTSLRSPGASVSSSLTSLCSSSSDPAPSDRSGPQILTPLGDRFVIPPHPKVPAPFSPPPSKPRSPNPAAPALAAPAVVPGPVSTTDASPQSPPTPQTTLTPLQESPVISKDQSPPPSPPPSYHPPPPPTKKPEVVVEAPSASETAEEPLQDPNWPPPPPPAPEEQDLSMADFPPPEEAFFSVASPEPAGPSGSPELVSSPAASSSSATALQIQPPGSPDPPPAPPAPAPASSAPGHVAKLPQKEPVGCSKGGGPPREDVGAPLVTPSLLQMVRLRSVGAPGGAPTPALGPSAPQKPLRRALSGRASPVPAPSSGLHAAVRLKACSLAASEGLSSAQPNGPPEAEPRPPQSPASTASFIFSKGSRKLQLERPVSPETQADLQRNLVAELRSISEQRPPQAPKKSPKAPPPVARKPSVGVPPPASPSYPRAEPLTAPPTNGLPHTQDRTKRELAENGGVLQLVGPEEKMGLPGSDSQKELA
# UniProt Q9P2M4: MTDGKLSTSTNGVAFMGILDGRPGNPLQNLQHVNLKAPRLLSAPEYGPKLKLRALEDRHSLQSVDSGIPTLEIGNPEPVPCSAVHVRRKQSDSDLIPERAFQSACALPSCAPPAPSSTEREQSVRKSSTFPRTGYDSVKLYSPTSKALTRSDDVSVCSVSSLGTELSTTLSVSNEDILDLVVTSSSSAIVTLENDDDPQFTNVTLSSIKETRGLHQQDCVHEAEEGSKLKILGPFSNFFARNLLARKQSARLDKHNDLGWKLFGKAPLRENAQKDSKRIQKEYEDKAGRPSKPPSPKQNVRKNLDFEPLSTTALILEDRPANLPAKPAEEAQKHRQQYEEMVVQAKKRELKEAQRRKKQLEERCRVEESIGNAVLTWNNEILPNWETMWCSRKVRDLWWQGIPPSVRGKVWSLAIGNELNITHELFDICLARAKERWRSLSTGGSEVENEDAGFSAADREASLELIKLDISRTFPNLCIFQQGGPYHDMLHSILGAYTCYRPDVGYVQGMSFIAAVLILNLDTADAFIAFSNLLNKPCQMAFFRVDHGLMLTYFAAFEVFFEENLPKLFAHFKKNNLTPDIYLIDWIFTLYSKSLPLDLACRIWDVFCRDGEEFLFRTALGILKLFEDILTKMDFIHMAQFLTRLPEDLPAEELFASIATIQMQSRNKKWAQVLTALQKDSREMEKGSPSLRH
# UniProt Q9P086: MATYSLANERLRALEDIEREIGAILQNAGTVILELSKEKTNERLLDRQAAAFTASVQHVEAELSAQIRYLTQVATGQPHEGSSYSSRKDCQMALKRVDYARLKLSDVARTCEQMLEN
# UniProt Q9UEU5: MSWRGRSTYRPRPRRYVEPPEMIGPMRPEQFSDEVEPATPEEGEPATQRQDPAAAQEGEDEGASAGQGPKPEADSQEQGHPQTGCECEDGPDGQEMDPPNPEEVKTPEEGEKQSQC
# UniProt Q9NZN8, whole entry: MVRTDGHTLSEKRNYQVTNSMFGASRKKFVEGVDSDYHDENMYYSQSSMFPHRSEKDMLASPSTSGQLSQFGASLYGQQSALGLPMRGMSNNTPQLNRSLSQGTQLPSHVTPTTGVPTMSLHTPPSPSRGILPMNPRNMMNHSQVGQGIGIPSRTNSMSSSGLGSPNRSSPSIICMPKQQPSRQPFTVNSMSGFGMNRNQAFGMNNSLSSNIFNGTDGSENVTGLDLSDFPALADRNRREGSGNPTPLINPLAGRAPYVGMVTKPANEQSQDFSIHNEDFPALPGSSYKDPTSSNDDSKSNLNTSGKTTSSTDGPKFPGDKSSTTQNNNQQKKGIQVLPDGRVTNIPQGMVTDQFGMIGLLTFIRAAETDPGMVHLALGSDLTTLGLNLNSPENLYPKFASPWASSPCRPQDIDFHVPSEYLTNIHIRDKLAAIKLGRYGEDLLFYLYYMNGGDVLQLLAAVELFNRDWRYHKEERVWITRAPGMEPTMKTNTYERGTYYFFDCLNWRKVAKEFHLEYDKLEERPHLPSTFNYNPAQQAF
# The other results are listed elsewhere or left out. Most entries show no effect beyond the scatter of the controls.
# Compound: CN[C@@H]1C[C@H]2O[C@@](C)([C@@H]1OC)n1c3ccccc3c3c4c(c5c6ccccc6n2c5c31)C(=O)NC4 [staurosporine]
# Test: log2 fold change of tryptic peptide abundance, ligand vs vehicle (limited proteolysis) (log2 ratio); higher = more trypsin-susceptible (destabilized)
# Settings: ligand concentration: 20 uM; sample: K562 cleared lysate; digestion: 4 min, 22 C (HT-PELSA RT4min, Orbitrap Astral)
row,Target,log2 fold change
1,"IPO11 (peptide sequence: MLALKDPVHTVSLQQFIYEK, peptide start residue: 921) (UniProt Q9UI26)",-0.133
2,"NDOR1 (peptide sequence: LRELGSLVWELLDR, peptide start residue: 528) (UniProt Q9UHB4)",0.973
3,"RABGEF1 (peptide sequence: QTSIETDRVSK, peptide start residue: 130) (UniProt Q9UJ41)",0.777
4,"UniProt Q9UI30 (peptide sequence: TMHHLLLEVEVIEGTLQCPESGR, peptide start residue: 83)",0.237
5,"NRBP1 (peptide sequence: FHKYWADIKENK, peptide start residue: 132) (UniProt Q9UHY1)",-0.56
6,"AFF4 (peptide sequence: LSSEHYSSQSHGNSMTELKPSSK, peptide start residue: 270) (UniProt Q9UHB7)",-0.594
7,"HEATR5B (peptide sequence: TVMGAAPELK, peptide start residue: 2023) (UniProt Q9P2D3)",0.419
8,"SPAST (peptide sequence: VYVSLPNEETR, peptide start residue: 504) (UniProt Q9UBP0)",0.137
9,"NXF1 (peptide sequence: GEIPEVAFMK, peptide start residue: 610) (UniProt Q9UBU9)",0.206
10,"RBM27 (peptide sequence: SKDRDPNR, peptide start residue: 187) (UniProt Q9P2N5)",0.946
11,"UniProt Q9P2N6 (peptide sequence: GDVDDPLLDMK, peptide start residue: 387)",-1.29
12,"UniProt Q9NZM5 (peptide sequence: VDLILENTSKVPAPK, peptide start residue: 118)",-0.18
13,"SAE1 (peptide sequence: VSQGVEDGPDTKR, peptide start residue: 184) (UniProt Q9UBE0)",-0.0938
14,"NOL12 (peptide sequence: LVLSFDEEK, peptide start residue: 18) (UniProt Q9UGY1)",-0.171
15,"UniProt Q9P2B7 (peptide sequence: VLHDTMDLNHLLK, peptide start residue: 339)",0.569
16,"BCAP29 (peptide sequence: KLVEDQEK, peptide start residue: 179) (UniProt Q9UHQ4)",0.38
17,"UXT (peptide sequence: VLRYETFISDVLQR, peptide start residue: 17) (UniProt Q9UBK9)",0.31
18,"SWAP70 (peptide sequence: VAHHEGLIR, peptide start residue: 538) (UniProt Q9UH65)",0.358
19,"ZMYM5 (peptide sequence: QLYGSSNTLLK, peptide start residue: 444) (UniProt Q9UJ78)",0.218
20,"KIAA1522 (peptide sequence: GLAVPDGPLGLPPKPERK, peptide start residue: 452) (UniProt Q9P206)",0.425
21,"MAGEC2 (peptide sequence: PPVPGVPFR, peptide start residue: 2) (UniProt Q9UBF1)",0.0567
22,"TBC1D14 (peptide sequence: LLSAPEYGPK, peptide start residue: 40) (UniProt Q9P2M4)",0.177
23,"POGK (peptide sequence: GMLILNGFR, peptide start residue: 466) (UniProt Q9P215)",-0.285
24,"MED11 (peptide sequence: ATYSLANER, peptide start residue: 2) (UniProt Q9P086)",0.452
25,"HOOK1 (peptide sequence: LEAAKDDYR, peptide start residue: 261) (UniProt Q9UJC3)",-0.278
26,"NCKIPSD (peptide sequence: LLLLLNRGDDPVR, peptide start residue: 590) (UniProt Q9NZQ3)",0.322
27,"UniProt Q9UEU5 (peptide sequence: TPEEGEKQSQC, peptide start residue: 107)",-0.0866
28,"CNOT2 (peptide sequence: TTSSTDGPKFPGDKSSTTQNNNQQK, peptide start residue: 308) (UniProt Q9NZN8)",-0.355

# Part of the list above, reformatted:
row	Target	log2 fold change
20	KIAA1522 (peptide sequence: GLAVPDGPLGLPPKPERK, peptide start residue: 452) (UniProt Q9P206)	0.425
21	MAGEC2 (peptide sequence: PPVPGVPFR, peptide start residue: 2) (UniProt Q9UBF1)	0.0567
